Results taken from PubChem BioAssay AID1439 (NMMLSC, 2008).
In all, about 220,000 compounds went through this assay and about 770 (0.35%) were called active. The shares of active, inactive and inconclusive entries below differ from those in the screen. Cut-off read from the data, not from the text of the source: active = binding response below about 49% or above about 150%; inconclusive = no clear call, values can overlap the other calls; inactive = in between.

Protein sequences, listed by entry. Tags and fused reporters are not part of them.
UniProt P09471, whole entry, looked up: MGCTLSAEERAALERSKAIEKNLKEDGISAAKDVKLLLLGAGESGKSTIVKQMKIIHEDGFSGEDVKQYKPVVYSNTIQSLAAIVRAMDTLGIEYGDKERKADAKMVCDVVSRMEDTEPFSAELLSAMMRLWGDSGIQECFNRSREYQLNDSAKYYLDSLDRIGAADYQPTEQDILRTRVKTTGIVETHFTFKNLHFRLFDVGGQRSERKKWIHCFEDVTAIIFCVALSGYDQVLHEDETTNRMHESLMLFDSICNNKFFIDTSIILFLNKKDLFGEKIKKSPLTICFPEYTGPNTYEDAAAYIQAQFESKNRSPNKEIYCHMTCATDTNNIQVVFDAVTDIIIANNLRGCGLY

molecular target: Guanine nucleotide-binding protein G(o) subunit alpha (Homo sapiens) (UniProt P09471); test: RGS7-Galphao binding modulators, primary screen, biochemical, multiplexed bead flow cytometry (AID 1439); settings: at 10 µM, actives lie on both sides;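 note: fluorescent Galphao held in activated GDP-AlF4 state binding bead-coupled RGS7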

Row | Compound | binding response (% of control)
1 | O=C(/C=C/C(=O)NCc1cccs1)NCc1cccs1 | inconclusive: 101%
2 | COc1ccc(-c2ccc(OC)c([C@H]3[C@H]4C=CC[C@@H](C)[C@@H]4C(=O)N3Cc3ccccc3)c2)cc1 | inconclusive: 75.1%
3 | OCCC1CN(Cc2ccc3c(c2)CCO3)CCN1Cc1ccc(F)cc1 (configuration not stated) | inactive: 108%
4 | O=C(O)c1cccc2c1C(=O)c1cccc3snc-2c13 | inconclusive: 97.7%
5 | CCN(CC)C(=O)CC(c1cc(OC)c(OC)c(OC)c1)c1c(OC)cc(OC)c2c(-c3ccccc3)cc(=O)oc12 (configuration not stated) | inconclusive: 114%
6 | CCOC(=O)C1CCN(C(=O)Nc2ccc(OCc3ccccc3)cc2)CC1 | inconclusive: 19%
7 | Cc1cc(Nc2ccccc2)n2nc(C)c(-c3ccccc3)c2n1 | inconclusive: 99.6%
8 | O=[N+]([O-])c1ccc(OC(F)F)c(/C=N/n2cnnc2)c1 | inconclusive: -81.8%
9 | CCc1ccn2cc(-c3cc(-c4ccccc4)no3)nc2c1 | inconclusive: 116%
10 | Cc1cc(C(=O)Nn2c(C)nc3ccccc3c2=O)ccc1[N+](=O)[O-] | inactive: 101%
11 | CCOc1c(Br)ccc2c1sc1nc[nH]c(=O)c12 | inactive: 95.8%
12 | CCOc1ncccc1C(=O)OCC(=O)c1ccc(F)cc1 | inconclusive: 118%
13 | O=C(Nc1ccc(O)cc1C(=O)O)c1cccs1 | inactive: 97.9%
14 | CC(=O)N(c1ccccc1)c1nnc(-c2cnc(C)cn2)s1 | inactive: 102%
15 | NC(N)=NC(N)=Nc1cccc(Cl)c1 | inconclusive: 55.5%
16 | COc1ccc(S(=O)(=O)N2CCOCC2)cc1NC(=O)Cn1nnc2ccccc2c1=O | inconclusive: 102%
17 | O=C(CNC(=O)c1cccc(Br)c1)N/N=C/c1cc(Br)cc(Br)c1O | inconclusive: 91%
18 | O=S(=O)(c1cc(C(F)(F)F)ccc1Cl)N1CCN(c2ccccn2)CC1 | inconclusive: 171%
19 | CC(NC(=O)C1c2ccccc2Oc2ccccc21)C1CCCO1 (configuration not stated) | inconclusive: 102%

Ordered by length of the SMILES (falling): three of the compounds above.
Row | Compound | binding response (% of control)
5 | CCN(CC)C(=O)CC(c1cc(OC)c(OC)c(OC)c1)c1c(OC)cc(OC)c2c(-c3ccccc3)cc(=O)oc12 (configuration not stated) | inconclusive: 114%
6 | CCOC(=O)C1CCN(C(=O)Nc2ccc(OCc3ccccc3)cc2)CC1 | inconclusive: 19%
1 | O=C(/C=C/C(=O)NCc1cccs1)NCc1cccs1 | inconclusive: 101%

Continuation:

Row | Compound | binding response (% of control)
20 | COc1ccc(/C=N/NC(=O)Cn2ccnc2C)cc1OC | inconclusive: 78.9%
21 | O=Cc1sc(=O)n(Cc2cccc(C(=O)O)c2)c1Cl | inconclusive: 74.9%
22 | C/C=C(/C)C(=O)OC1Cc2c(ccc3ccc(=O)oc23)OC1(C)C (configuration not stated) | inconclusive: 145%
23 | O=C(Nc1ccc(Nc2ccncc2)cc1)c1ccc(Nc2ccnc3ccc([N+](=O)[O-])cc23)cc1[N+](=O)[O-] | inconclusive: 113%
24 | CCn1nc(C)c(/C=N/NC(=O)Cn2cncn2)c1C | inconclusive: 99.6%
25 | CCOC(=O)CNC(=O)c1c(C)nn(C)c1Cl | inconclusive: 92%
26 | Cc1ccc(C)n1-c1ccc(-c2ccnc(N)n2)cc1 | inconclusive: 92.4%
27 | COc1ccc(N2C(=O)CC(Sc3nnnn3-c3ccc(F)cc3)C2=O)cc1 (configuration not stated) | inconclusive: 84.1%
28 | O=C(COc1ccc(Br)cc1CNC1CCCC1)Nc1ccccc1 | inconclusive: 83.3%
29 | CCOC(=O)N1CCC(NC(=O)c2cc3c(=O)[nH]c4ccccc4c3n2C)CC1 | inactive: 102%
30 | Cc1ccc(NC(=O)C2CCCN(C(=O)c3ccc(Cl)cc3)C2)cc1S(=O)(=O)N1CCOCC1 (configuration not stated) | inconclusive: 104%
31 | CCOc1ccc(S(=O)(=O)Nc2ccc(C(=O)N/N=C(\C)c3ccc(-n4ccnc4)cc3)cc2)cc1 | inactive: 143%
32 | CC(C)(C)C(=O)COC(=O)c1cc(-c2ccncc2)nc2ccccc12 | inconclusive: 116%
33 | Cn1nc(C(F)(F)F)c(-c2ccc(F)cc2)c1NC(=O)Nc1ccc(F)cc1 | inconclusive: 103%
34 | CCC(C)C(NC(=O)/C(=C\c1ccccc1)NC(=O)c1ccc(OC)cc1)C(=O)O (configuration not stated) | inactive: 103%
35 | Cc1ccc(N2CC(=O)Nc3c(sc4nc(C)cc(C)c34)C2=O)cc1 | inconclusive: 157%
36 | Cc1cc(C(=O)CN2C(=O)NC3(CCCCC3C)C2=O)c(C)n1Cc1cccs1 (configuration not stated) | inactive: 98.5%
37 | COc1ccc(OC)c(CC(NC(C)=O)C(=O)NC2CCN(c3nc(OC)nc(OC)n3)CC2)c1 (configuration not stated) | inconclusive: 98.1%
38 | CC1CN(c2nnc(NC(=O)c3ccccc3)s2)CC(C)O1 (configuration not stated) | inactive: 103%

Row | Compound | binding response (% of control)
39 | CC(=O)c1cc(F)ccc1OCC(=O)N1CCN(c2ccc(F)cc2)CC1 | inactive: 99.3%
40 | COc1ccc(/C(C)=N/N=C(N)N)c(O)c1 | inconclusive: 103%
41 | O=C1C[C@H]2[C@H](CO)[C@@H](OC(=O)c3ccc(-c4ccccc4)cc3)C[C@H]2O1 | inconclusive: 293%
42 | Cc1cccc(C)c1NC(=O)N1CCCCCCC1 | inconclusive: 82%
43 | FC(F)(F)Oc1ccc(NC(=S)Nc2ccc(OC(F)(F)F)cc2)cc1 | inconclusive: 105%
44 | Cc1cccc(C(=O)Nc2ccc3c(c2)C(=O)N(CC(C)C)C3=O)c1 | inconclusive: 83.5%
45 | CC(C)CN(CC(C)C)C(=O)CCCC(=O)N(CC(C)C)CC(C)C | inactive: 101%
46 | CN(C)c1ccc(Cl)cc1N | inactive: 91.2%
47 | COc1ccc(N2CCN(C(=O)c3ccc(COc4ccc5c(C)cc(=O)oc5c4)cc3)CC2)cc1 | active: 158% [activator]
48 | Cc1nc2cc(N=NC3=C(O)CCCC3=O)ccc2s1 | inactive: 102%
49 | Cc1nn(Cc2cccc(C(=O)NCC(C)C)c2)c(C)c1Br | inactive: 112%
50 | C/C(=N\NC(=O)c1ccc(N/N=C(\C)c2ccc(O)cc2)cc1)c1ccc(O)cc1 | inconclusive: 86.1%
51 | O=C(NCc1ccco1)c1ccc2nc3sc4c(c3c(=O)n2c1)CCCC4 | inactive: 98.4%
52 | COc1cccc(C(c2c(N)n(C)c(=O)n(C)c2=O)C(C)[N+](=O)[O-])c1 (configuration not stated) | inconclusive: 92%
53 | Cc1nc2cc(NC(=O)NC3CC3)ccc2n1C | inactive: 99%
54 | O=C1COc2ccc(-c3csc(NCC4CCCO4)n3)cc2N1 (configuration not stated) | inactive: 97%
55 | CN1C(=O)N(CN2CCCCC2)C2C1N(C)C(=O)N2CN1CCCCC1 (configuration not stated) | inactive: 123%
56 | O=C(Cn1cnc2cc([N+](=O)[O-])ccc2c1=O)Nc1ccc(N2CCOCC2)cc1 | inconclusive: 108%
57 | CC1CCCC(NC(=O)COC(=O)Cc2cn3ccsc3n2)C1C (configuration not stated) | active: -19.5%
